According to patent publication US20240409935A1, “Atg8ylation coordinates stress granule formation and mTOR inactivation in response to lysosomal damage” (priority 2023, published 2024):
No constants are given. Whether binding was seen depends on the method and setting. Binding seen in cells or lysates may run through a third protein. Some results given as binding are weak or reduced against the parent protein; the word gives no strength.

By UniProt entry, the sequences of proteins in these tests, tags left out. Residues count along the entry.
UniProt Q8WUM4, residues 362-702: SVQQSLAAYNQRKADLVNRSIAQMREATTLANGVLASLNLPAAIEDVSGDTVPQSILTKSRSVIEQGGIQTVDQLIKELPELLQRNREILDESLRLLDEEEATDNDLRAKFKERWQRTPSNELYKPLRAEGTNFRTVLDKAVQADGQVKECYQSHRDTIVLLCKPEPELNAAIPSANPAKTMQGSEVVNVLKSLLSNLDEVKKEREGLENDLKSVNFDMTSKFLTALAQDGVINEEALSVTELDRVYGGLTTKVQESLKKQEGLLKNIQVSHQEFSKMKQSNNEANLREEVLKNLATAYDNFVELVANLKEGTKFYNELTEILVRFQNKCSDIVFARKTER
UniProt P19525: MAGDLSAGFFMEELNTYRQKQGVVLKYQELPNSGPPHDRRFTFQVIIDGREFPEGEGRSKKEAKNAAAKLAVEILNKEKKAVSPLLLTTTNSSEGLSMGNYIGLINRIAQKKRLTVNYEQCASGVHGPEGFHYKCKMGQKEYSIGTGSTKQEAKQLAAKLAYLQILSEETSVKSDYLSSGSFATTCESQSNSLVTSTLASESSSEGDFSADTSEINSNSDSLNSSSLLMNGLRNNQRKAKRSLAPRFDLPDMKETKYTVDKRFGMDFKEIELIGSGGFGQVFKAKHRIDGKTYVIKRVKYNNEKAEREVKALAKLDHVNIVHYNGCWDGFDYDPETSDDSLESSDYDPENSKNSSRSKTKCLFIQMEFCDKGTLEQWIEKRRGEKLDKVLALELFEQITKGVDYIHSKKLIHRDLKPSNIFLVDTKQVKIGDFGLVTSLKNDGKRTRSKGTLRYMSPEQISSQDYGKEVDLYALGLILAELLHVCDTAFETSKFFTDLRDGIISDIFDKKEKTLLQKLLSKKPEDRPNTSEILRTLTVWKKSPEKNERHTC

Target: FLAG-tagged V domain of ALIX (UniProt Q8WUM4)
Assay: co-IP with anti-FLAG from HEK293T cells expressing FLAG tagged ALIX constructs and Myc-PKR

Myc-PKR (from UniProt P19525 1-551) (enzyme)
binding: binds
